# Test results as given in PubChem BioAssay AID624291 (National Center for Advancing Translational Sciences (NCATS), 2012).
# Screen size: about 350,000 compounds; about 220 (0.063%) were called active. Inconclusive results, whose numbers are uncertain, are shown with a selection of clear calls. Calls come from the whole dose curve; as a rule, active = well fitted activation curve with a large enough effect; inconclusive = small, poorly fitted or top-dose-only effect; inactive = no such curve, though single readings can be large or run the other way. A potency beside an inconclusive call is a rough fit, not a confirmed value.
# Experiment: qHTS for Activators of Integrin-Mediated Alleviation for Muscular Dystrophy; note: nearly all actives have a fitted effect of over 60% in size;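 for activation: 100% = response of the positive control SU9516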
# Settings: alpha7betagal myoblasts, beta-gal FDG fluorescence, 48 h; activation: at 38.3 µM (top of the series)
# Outline: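 Alpha7betagal+/- myoblasts (passage 13) were plated 16-24 hr, then exposed to compounds (1:260 dilution of DMSO stock) for 48 hours at 37C. After MPER lysis, β-galactosidase reporter activity was read as FDG fluorescence (ex 480/em 540) after 30 minutes.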
# Potency is the fitted concentration of half-maximal effect.
Compound,activation,Potency
C=C(C)Cn1c(-c2ccccc2)nc2ccccc21,inactive: 23.2%,–
O=C(CCc1cn(Cc2ccc(F)cc2)c2ccccc12)N1CCOCC1,–,"inconclusive: 3.16 µM [activator, single point]"
COc1ccc(CCN(C)C(=O)C23CC4CC(CC(Cl)(C4)C2)C3)cc1OC,–,"inconclusive: 10 µM [activator, partial curve, poor fit]"
CC(C)N(C(=O)CSc1nc(COc2ccccc2)nc2ccccc12)C(C)C,–,"inconclusive: 28.2 µM [activator, single point]"
O=C(NN1CC(C(=O)OCc2ccccc2F)CC1=O)c1ccccc1 (stereo not given),–,"inconclusive: 2 µM [activator, partial curve, poor fit]"
CC(/C=C/c1ccccc1)=N\NC(=O)CCc1ccccc1,inactive: 21.9%,–
COc1ccc(NC(=O)CNC(=O)c2cccs2)cc1Cl,–,"inconclusive: 3.98 µM [activator, partial curve, poor fit]"
N#C/C(=C\c1ccccc1)C(=O)NCc1ccc(F)cc1,inactive: 1.39%,–
Cc1ccc(C(=O)OCC(=O)Nc2ccccc2Cl)c(O)c1,–,"inconclusive: 3.55 µM [activator, single point]"
NC(=O)c1cc(Br)cc2c3c([nH]c12)CCCC3,inactive: -24.9%,–
Oc1cccc2ccc[n+](CC(O)Cn3c4ccccc4c4ccccc43)c12 (stereo not given),inactive: -19.2%,–
C=CCN1C(=O)/C(=C2/Sc3ccc(OC)cc3N2C)SC1=Nc1ccccc1,–,"inconclusive: 1.58 µM [activator, partial curve, poor fit]"
COc1ccc(NC(=O)CSc2nc3nc(-c4cccs4)cc(C(F)(F)F)c3c(=O)[nH]2)c(OC)c1,–,"inconclusive: 6.31 µM [activator, partial curve, poor fit]"
O=C(OCC(=O)N1CCc2ccccc21)[C@@H]1CCCN1S(=O)(=O)c1ccccc1F,–,"inconclusive: 1.26 µM [activator, partial curve, poor fit]"
COc1ccc(CN2CCC(=O)N([C@H](CO)Cc3ccccc3)CC2)cc1,–,"inconclusive: 5.01 µM [activator, single point]"
CN(CCc1ccccn1)C(=O)CCC1CCCN(C(=O)c2cccc(N(C)C)c2)C1 (stereo not given),–,"inconclusive: 28.2 µM [activator, single point]"
COC(=O)c1c(C)[nH]c(C(=O)/C=C/c2cccc(Cl)c2)c1C,inactive: -37.6%,–
CCc1ccccc1NC(=O)CSc1ccsc1[N+](=O)[O-],inactive: -20.6%,–
COc1ccc(/C=N/N(C)C2=NCCN2)c(OC)c1OC,–,"inconclusive: 28.2 µM [activator, single point]"
COC1=C(C)C(=O)C2=C(C1=O)C1C3CC4=C(C(=O)C(OC)=C(C)C4=O)C(CNC(=O)C(C)=O)N3C(C#N)C(C2)N1C (stereo not given),inconclusive: -56.3% [activator],–
Cc1noc(C)c1COC(=O)[C@@H](NC(=O)c1ccccc1Cl)C(C)C,–,"inconclusive: 5.01 µM [activator, single point]"
CCCCCNCc1cccn1C,inactive: -1.52%,–
COc1ccc(-c2cc(C3CCN(C(=O)OC(C)(C)C)CC3)[nH]n2)cc1,–,"inconclusive: 1.12 µM [activator, partial curve, poor fit]"
CCc1cccc(C)c1NS(=O)(=O)c1cc(Br)cnc1N,–,"inconclusive: 11.2 µM [activator, partial curve, poor fit]"

# Pulled by compound from above:
Compound,activation,Potency
COC(=O)c1c(C)[nH]c(C(=O)/C=C/c2cccc(Cl)c2)c1C,inactive: -37.6%,–
CC(C)N(C(=O)CSc1nc(COc2ccccc2)nc2ccccc12)C(C)C,–,"inconclusive: 28.2 µM [activator, single point]"
O=C(NN1CC(C(=O)OCc2ccccc2F)CC1=O)c1ccccc1 (stereo not given),–,"inconclusive: 2 µM [activator, partial curve, poor fit]"

# Later entries:

Compound,activation,Potency
COc1ccc(S(=O)(=O)N(CC(=O)N/N=C/c2ccccc2C(=O)O)c2ccccc2OC)cc1,–,"inconclusive: 28.2 µM [activator, single point]"
CCOc1cc(C2NN=C(c3ccccc3)S2)ccc1OCc1ccc(F)cc1 (stereo not given),inactive: 29%,–
COc1ccc(CCNC(=O)C2c3ccccc3C(=O)N2CCC(C)C)cc1OC (stereo not given),–,"inconclusive: 28.2 µM [activator, single point]"
CCn1c(COc2ccccc2)nnc1SCC(=O)NCc1ccco1,–,"inconclusive: 28.2 µM [activator, single point]"
CC1CCCN(c2ncnc3c2cnn3-c2ccccc2)C1 (stereo not given),inactive: 17%,–
CSc1ccc(C(c2c(C(=O)O)[nH]c3ccccc23)c2c(C(=O)O)[nH]c3ccccc23)cc1,inactive: 3.47%,–
COc1ccccc1N1CCN(C(=O)/C=C/c2ccc(C)cc2)CC1,inactive: -12.1%,–
N#C/C(=C/c1cccs1)c1nc2ccccc2[nH]1,inactive: 15.7%,–
c1ccc(C2=NN(c3ccccc3)CC2)cc1,–,"inconclusive: 3.98 µM [activator, single point]"
CCCOc1ccc(C2NC(=S)NC(C)=C2C(=O)c2ccccc2)cc1OC (stereo not given),–,"inconclusive: 5.01 µM [activator, single point]"
COC(=O)c1ccc(COC(=O)C2CCN(S(=O)(=O)c3ccc(C)c(C)c3)CC2)o1,–,"inconclusive: 28.2 µM [activator, single point]"
COc1ccc(N2CCN(C(=O)CSc3nc4nc(C)cc(C)n4n3)CC2)cc1,–,"inconclusive: 2.82 µM [activator, partial curve, poor fit]"
O=C(/C=C\c1ccccc1)NCC(=O)N/N=C/c1ccc(O)cc1O,inactive: 0.662%,–
COc1ccc(NC(=O)CCN2CCN(c3ccc(F)cc3)CC2)cc1,inactive: -4.12%,–
COc1ccc(NC(=O)C2CC3C=CC2C3)c([N+](=O)[O-])c1 (stereo not given),–,"inconclusive: 15.8 µM [activator, partial curve, poor fit]"
N#Cc1cccc(S(=O)(=O)N2CCN(c3ccnc4cc(Cl)ccc34)CC2)c1,–,"inconclusive: 2.24 µM [activator, full curve]"
O=C(CSc1ccccc1F)NCC(c1ccco1)N1CCCCC1 (stereo not given),inactive: -11.5%,–
CC(C)Oc1ccc(C(CC(=O)O)c2ccc(F)cc2)cc1 (stereo not given),–,"inconclusive: 12.6 µM [activator, single point]"
O=C(Oc1ccc(N(C(=O)c2ccncc2)S(=O)(=O)c2cccs2)cc1)c1ccncc1,–,"inconclusive: 14.1 µM [activator, single point]"
O=C(NCC(=O)N(c1cccnc1)C(C(=O)NC1CCCC1)c1cccs1)c1ccco1 (stereo not given),–,"inconclusive: 8.91 µM [activator, partial curve]"
CCOc1ccc(NS(=O)(=O)c2ccc(C(=O)N3CCN(C(C)=O)CC3)cc2)cc1,inactive: 13.5%,–
CCCCN(CCCC)CC(O)COc1ccccc1C(=O)Nc1ccccc1 (stereo not given),inactive: -45.6%,–
Cc1c(NC(=S)N/N=C/c2cccc(O)c2)c(=O)n(-c2ccccc2)n1C,inactive: 5.68%,–
COc1ccc(NC(=S)Nc2ccccc2C(F)(F)F)cc1,inactive: -0.833%,–

Compound,activation,Potency
COc1ccc(-n2ncc3c(N4CCCc5ccccc54)ncnc32)cc1,–,"inconclusive: 5.62 µM [activator, partial curve, poor fit]"
O=C(O)C1CCCN1S(=O)(=O)c1ccc(F)cc1 (stereo not given),–,"inconclusive: 5.01 µM [activator, single point]"
COCCNC(=O)CN1CCC(NC(=O)c2ccco2)CC1,inactive: -0.943%,–
C/C(N)=C(/C#N)C(=O)CSc1cc(C)c2ccccc2n1,–,"inconclusive: 28.2 µM [activator, single point]"
O=c1[nH]c2cc3c(cc2cc1CN(CCc1ccccc1)Cc1nnnn1CC1CCCO1)OCO3 (stereo not given),inactive: 1.39%,–
O=C(Nc1ccncc1)Nc1ccc(Cl)cc1Cl,–,"inconclusive: 22.4 µM [activator, single point]"
Nc1nnc(CCCCCc2nnc(N)s2)s1,–,"inconclusive: 1 µM [activator, partial curve, poor fit]"
NS(=O)(=O)c1ccc(NC(=O)c2cc(-c3ccccc3O)n[nH]2)cc1,–,active: 10 µM
CCCCn1c(=O)[nH]c2c(oc3ccccc32)c1=O,–,"inconclusive: 5.01 µM [activator, single point]"
N#C/C(=C\Nc1ccc2c(c1)OCCO2)c1nc(-c2ccccc2)cs1,–,"inconclusive: 28.2 µM [activator, single point]"
Cn1c(Oc2ccc(F)cc2F)c(C=O)c2ccccc21,inactive: -3.73%,–
O=C(O)CSCC(=O)N1CCN(Cc2ccc3c(c2)OCO3)CC1,–,"inconclusive: 10 µM [activator, single point]"
CC1CCN(CC(O)COc2ccc(-c3ccccc3)cc2)CC1 (stereo not given),–,"inconclusive: 0.398 µM [activator, partial curve, poor fit]"
O=C(NCc1ccccc1Cl)C1CCCN1C(=O)Nc1ccccc1 (stereo not given),–,"inconclusive: 3.98 µM [activator, single point]"
Cn1c(SCC(=O)Nc2ccc(Br)cc2F)nnc1-c1ccco1,–,"inconclusive: 1.78 µM [activator, partial curve, poor fit]"
CC(C)c1ccc(NC(=O)C(c2ccc3c(c2)OCO3)N2CCN(C(=O)c3ccco3)CC2)cc1 (stereo not given),–,"inconclusive: 3.16 µM [activator, full curve, poor fit]"
CC(=O)c1cccc(NC(=S)NNC(=O)c2ccc(C)c([N+](=O)[O-])c2)c1,–,"inconclusive: 5.01 µM [activator, single point]"
COc1ccccc1C(=O)Nc1nnc(S(=O)(=O)N(C)Cc2ccccc2)s1,–,"inconclusive: 5.62 µM [activator, partial curve, poor fit]"
CCOC(=O)c1nn(-c2ccc(C)c(C)c2)c(=O)c(C#N)c1C,inactive: 4.77%,–
Cc1ccc2[nH]c(C(=O)NCCN3CCCC3)cc2c1,–,"inconclusive: 2.51 µM [activator, single point]"
C[C@H](NC(=O)c1cc2cc(Cl)ccc2n1C)C(=O)N1CCC(C(=O)O)CC1,–,"inconclusive: 1.58 µM [activator, single point]"
COc1ccc(C(=O)Nc2ccccc2C(=O)O)cc1NC(=O)C(c1ccccc1)c1ccccc1,–,"inconclusive: 3.55 µM [activator, single point]"
